Test system: visceral pain writhing responses
Assay: Visceral pain, acetic acid induced writhing responses
Type: in vivo, Male ICR mice
Conditions: i.v.; estimated or calculated from dose range
Description: Male ICR mice (average body weight 25 g, Harlan, Israel) were pretreated by i.v. injection at volume dose of 5 ml/kg of vehicle, control and test compounds at various doses. Other routes of administration were tested for selected compounds including i.m. or s.c. injections at volume dose of 2.5 ml/kg and p.o. gavage at volume dose of 5 ml/kg. Compounds were dissolved in CREMOPHOR®:Ethanol and diluted 1:20 in saline prior to injection or gavage. Compounds administered i.v. were injected fifteen minutes before pain induction, whereas compounds administered i.m., s.c. or p.o. were supplied thirty minutes before pain induction, unless otherwise indicated. Each treatment group, except for controls comprising at least 30 animals, was composed of at least 6 animals. Fifteen or thirty minutes after drug administration, depending on the route of administration, the mice were injected i.p. with 10 ml/kg of 0.6% acetic acid and the number of visceral pain related behaviors (writhing movements globally defined as WR, i.e. stretching, contractions of the abdomen accompanied by an elongation of the body and extension of the hind limbs) was counted over a period of 5 minutes, starting 5 minutes after the acetic acid administration. […] The results are expressed as mean number of writhing responses ±SEM. Data were analyzed using analysis of variance (ANOVA) followed by post-hoc Fisher test.

CN1CC[C@]23c4c5ccc(O)c4O[C@H]2[C@@H](O)C=C[C@H]3[C@H]1C5 [morphine, reference compound]
IC50 in visceral pain: 1.07 mg/kg

Source: patent US20090054376A1, “BENZOFURAN DERIVATIVES WITH THERAPEUTIC ACTIVITIES” (Pharmos Corporation, priority 2005, published 2009)
